Results as given in patent US20220202801A1, “USE OF COMPOUND IN PREPARATION OF DRUG FOR TREATING ATHEROSCLEROSIS” (GenEros Biopharma Ltd., priority 2019, published 2022).

What was measured:
ApoE knockout mice [1] = assay: Blood lipid metabolism TG, TCHO, HDL-c, LDL-c (Example 2); assay type: in vivo
From the text: Methods: A total of 130 SPF grade C57BL/6 ApoE −/− model male mice aged 8 weeks were purchased from Charles River Laboratories (Beijing, China) (animal license number: SCXK (Beijing) 2016-0001, animal qualification certificate No.: 11400700331337). After one week of acclimatization in a SPF-grade animal facility, the animals with less weights were discarded and the rest was randomly divided into 11 groups, with 8 animals in each group. Except for the healthy control group, the rest were fed with 10% high-fat food (the first day of the high-fat diet was recorded as D1). […] Animals were observed and administered by gavage once a day and the body weight were measured once a week for 56 days. […]
At the end of the experiment, the animals were euthanized by inhalation of carbon dioxide. […] The levels of total cholesterol TC, triglyceride TG, high-density lipoprotein HDL-C, and low-density lipoprotein LDL-C were measured, and the remaining serum was stored in a refrigerator at −80° C.
Before the start of the experiment, animal blood samples were analyzed for blood lipid metabolism, including conventional triglyceride (TG), total cholesterol (TCHO), high-density lipoprotein (HDL-c) and low-density lipoprotein (LDL-c). After high-fat or ordinary food feeding for 8 weeks, the blood lipid levels were measured again. […]

ICAM-1 = assay: Immunohistochemistry of aortic wall, ICAM-1; assay type: in vivo, mice; details: 20 mg/kg gavage QD
From the text: (§1) Methods: SPF grade C57BL/6 ApoE −/−model mice were provided by Guangdong Medical Experimental Animal Center, laboratory animal production license No. SOCK (Guangdong) 2013-0002. Laboratory animal quality certificate number: 44007200048196). Mice were half male and half female, aged 8 to 12 weeks, and 72 animals in total. After four weeks of housing in a SPF-level animal facility, animals with less body weights were disposed. A total of 64 animals were randomly divided into 8 groups, 8 in each group, fed with 10% high-fat food, and received with different treatments. Animals were observed and administered with the medicines by gavage once daily. The body weights were measured once a week and continued for 58 days. Atorvastatin calcium tablets (abbreviated as statins) were ground and prepared with 0.5% sodium carboxymethyl cellulose solution. The test sample was dissolved in dimethyl sulfoxide solution and prepared with 30% PEG300.
(§2) After blood collection, the animals were sacrificed, and the aortic arch together with the heart and thoracic aorta were fixed with neutral formaldehyde and subject to pathological examination. […]
(§3) c) Immunohistochemistry: The thoracic aorta was sliced and detected by immunohistochemistry for the expression of CD68, intercellular adhesion molecule-1 (ICAM-1), and vascular cell adhesion Molecule-1 (VCAM-1).

CD68 = assay: Immunohistochemistry of aortic wall, CD68; assay type: in vivo, mice; details: 20 mg/kg gavage QD
From the text: as §1, §2, §3

ApoE knockout mice [2] = assay: Four blood lipids in serum of ApoE knockout mice (Example 1); assay type: in vivo; details: half male and female, 20 mg/kg body weight
From the text: as §1, with “Atorvastatin calcium tablets (abbreviated as statins) were ground and prepared with 0.5% sodium carboxymethyl cellulose solution.” left out
At the end of the experiment, animals were anesthetized with pentobarbital sodium. Blood was collected from the orbital venous plexus, and centrifuged at 3000 r/min at a low temperature for 10 min to separate the serum. The levels of total cholesterol TC, triglyceride TG, high-density lipoprotein HDL-C, and low-density lipoprotein LDL-C were measured, and the remaining serum was stored in a refrigerator at −80° C.
Statistical analysis: Data were expressed as the mean plus or minus the standard deviation (x± s), and analyzed by SPSS21.0 statistical software. […] The level of test is α=0.05.

VCAM-1 = assay: Immunohistochemistry of aortic wall, VCAM-1; assay type: in vivo, mice; details: 20 mg/kg gavage QD
From the text: as §1, §2, §3

## CC(C)c1c(C(=O)Nc2ccccc2)c(-c2ccccc2)c(-c2ccc(F)cc2)n1CC[C@@H](O)C[C@@H](O)CC(=O)[O-].CC(C)c1c(C(=O)Nc2ccccc2)c(-c2ccccc2)c(-c2ccc(F)cc2)n1CC[C@@H](O)C[C@@H](O)CC(=O)[O-].[Ca+2] [Statin, Atorvastatin calcium, reference compound]
ApoE knockout mice [1]
  effect on high-density lipoprotein (HDL-c) level compared with the vehicle group: increase
  effect on low-density lipoprotein (LDL-c) level compared with the vehicle group: reduce
ICAM-1
  ICAM-1 average optical density: 2.04 ± 1.82 ×10^−2
ICAM-1; listed as statin
  ICAM-1 average optical density: lower than the model control group
CD68
  CD68 average optical density: 1.68 ± 1.22 ×10^−2
ApoE knockout mice [2]
  HDL-C: 1.68 ± 0.49 mmol/L
VCAM-1
  VCAM-1 average optical density: 1.09 ± 0.54 ×10^−2
